{
  "source": "patent US10882863B2",
  "about": "“Compounds for reducing c-Myc in c-Myc overexpressing cancers background” (The Trustees of Columbia University in the City of New York, priority 2016, dated 2021)",
  "format_in_all_cases": "cell-based",
  "key": {"c-Myc [1]": {"tested_on": "c-Myc", "test": "Western blot of c-Myc level in LY10 cells", "conditions": "LY-10, 25 uM, 6 hours, vs vehicle", "experimental": "(§1) Western blot was performed on whole protein extract from cultured cells under specified treatment conditions, most often for 24 hours. Western blotting was performed according to standard protocols, using the chemiluminescence detection system from Thermo Scientific. The primary antibodies were purchased from Cell Signaling Technology unless specified otherwise, and were against these proteins: 4EBP1, phos-4EBP1, S6K, phos-S6K, Bcl2, Bcl-xL, PARP, c-myc, B-catenin, P-4EBP1 (S65), P-4EBP1 (T70). Signals of beta-actin and GAPDH were used as loading control. Goat anti-rabbit or anti-mouse secondary antibodies were purchased from Santa Cruz Biotechnology.\n(§2) The lymphoma cell lines LY10 and LY7 were treated with PF4800567 (PF), Cal-101 (Cal), TGR-1202 (TG) and CUX-03166 as single agents for 6 hours all at 25 uM concentrations. Protein extracts were processed for Western blot using antibodies against c-Myc, B-Catenin, phosphorylated 4EBP1, total 4EBP1, and beta actin."}, "c-Myc [2]": {"tested_on": "c-Myc", "test": "Western blot of c-Myc level in LY7 (GCB-DLBCL) cells", "conditions": "LY-7, 25 uM, 6 hours", "experimental": "as §1, §2\nFIG. 6. […] Protein extracts were processed for Western blot using antibodies against c-Myc, B-Catenin, phosphorylated 4EBP1, total 4EBP1, P-p70S6K, P70S6K, PARP and beta actin."}, "phosphorylation of 4EBP1": {"tested_on": "phosphorylation of 4EBP1", "test": "Western blot of phosphorylated 4EBP1 in LY10 cells", "conditions": "LY-10, 25 uM, 6 hours, vs vehicle", "experimental": "as §1, §2"}},
  "note": "For at least one compound, name, drawing or mass did not settle the structure.",
  "data": [
    {"smiles": "CC[C@H](Nc1ncnc2[nH]cnc12)c1nc2cccc(F)c2c(=O)n1-c1ccccc1", "note": "[Cal-101, reference compound]", "values": [
      {"measurement": "inhibition of the c-Myc level (Western blot)", "setting": "c-Myc [1]", "result": "moderate inhibition"},
      {"measurement": "reduction in c-Myc (Western blot)", "setting": "c-Myc [2]", "result": "little reduction"},
      {"measurement": "inhibition of phosphorylation of 4EBP1 (Western blot)", "setting": "phosphorylation of 4EBP1", "result": "moderate inhibition"}
    ]}
  ]
}
